# According to patent US10434116B2 (priority 2014, dated 2019):
# Structures can show the parent of a compound that is named as a salt.
# Tested on: MERS-CoV
# Test: microbe, parasite or virus in culture
# Assay type: cell-based
# Details: Middle East respiratory syndrome-related coronavirus, Vero C1008, read-out: IC50 value for MERS-CoV (TCID50 assay)
structure (smiles),measurement,value
Cc1ccc(NC(=O)c2ccc(CN3CCN(C)CC3)cc2)cc1Nc1nccc(-c2cccnc2)n1 [Imatinib mesylate],IC50,14.5 µM
